Binding data for 1 molecule are collected here from paper PMC10253026.

The assay concerns the target T1, Interleukin-4 cytokine receptor (IL-4R) (pig (endogenous in mini-pig tissue)) (UniProt Q863Z5).
T1 sequence: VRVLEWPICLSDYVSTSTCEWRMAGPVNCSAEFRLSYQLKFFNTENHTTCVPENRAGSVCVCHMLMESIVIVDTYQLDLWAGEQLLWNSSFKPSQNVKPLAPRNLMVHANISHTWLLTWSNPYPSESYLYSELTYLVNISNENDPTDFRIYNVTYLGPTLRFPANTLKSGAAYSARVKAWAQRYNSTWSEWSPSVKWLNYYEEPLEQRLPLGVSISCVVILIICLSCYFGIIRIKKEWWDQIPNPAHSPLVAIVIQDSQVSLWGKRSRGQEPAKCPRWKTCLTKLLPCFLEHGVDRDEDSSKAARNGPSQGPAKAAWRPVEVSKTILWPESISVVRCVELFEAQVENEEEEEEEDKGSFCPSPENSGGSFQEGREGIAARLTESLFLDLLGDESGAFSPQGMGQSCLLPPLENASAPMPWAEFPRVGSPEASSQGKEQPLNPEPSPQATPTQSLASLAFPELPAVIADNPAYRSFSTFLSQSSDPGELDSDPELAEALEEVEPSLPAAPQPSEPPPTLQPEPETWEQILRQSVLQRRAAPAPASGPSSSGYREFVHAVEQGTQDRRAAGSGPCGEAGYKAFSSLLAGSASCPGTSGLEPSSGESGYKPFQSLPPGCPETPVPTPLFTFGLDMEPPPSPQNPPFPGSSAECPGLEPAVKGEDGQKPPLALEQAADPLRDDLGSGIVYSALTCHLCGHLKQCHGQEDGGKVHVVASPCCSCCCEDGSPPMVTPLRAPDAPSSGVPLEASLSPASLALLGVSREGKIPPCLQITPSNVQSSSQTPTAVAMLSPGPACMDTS
The assay can be described thus: proximity ligation; in situ Duolink PLA (mouse/rabbit red kit) on 5 um paraffin sections of mini-pig skin (cut ear, day 2), lung (infected) and skeletal muscle (irradiated 50 Gy, day 76), wounded and healthy tissue; primary antibodies against cytokine and receptor overnight at 4 C; confocal microscopy.

These are yes or no findings as the source states them, for the method shown. In cells and extracts the contact can be indirect. Some results given as binding are weak or reduced against the parent protein; the word gives no strength.

B1: Interleukin-4 cytokine (IL-4) (ligand, UniProt Q04745 25-133)
chain: HKCDITLQEIIKTLNILTARKNSCMELPVTDVFAAPENTTEKETFCRASTVLRHIYRHHTCMKSLLSGLDRNLSSMANMTCSVHEAKKSTLKDFLERLKTIMKEKYSKC
As for B1, the binding entry was “binds”.
